Results deposited as PubChem BioAssay AID1159579 (Peter MacCallum Cancer Centre, 2015)
Screen: 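Follow-up screen seeking modulators of motility in lymphatic endothelial cells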 (follow-up of hits). Cell system: human dermal lymphatic endothelial cells. Knock-down reagent: single siRNA against human genes, 25 nM. Measured: 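High content images of wound closure area and cell nuclei counts, each the average of two wells, expressed against mock transfection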. Direction: migration relative to mock: higher = more migration into the scratch; mean nuclei count: higher = more cells remaining. Rule for the call: 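Called active when the migration ratio is 0.6 or lower (impaired) or 1.3 or higher (accelerated), but inactive whenever the mean nuclei count falls under 3300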. Meaning of the calls: active = migration changed (impaired or accelerated); inactive = no migration change, or too few cells.
The deposit covers about 2,000 reagents; shown is a part drawn at random. 549 of them (27%) were called active. 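Some migration ratios are negative; siRNAs with too few cells are inactive whatever their migration ratio.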 The numbers tell different reagents against one gene apart. Not stated in the record: the time to read-out.

{"gene": "RNASEH2C", "siRNA no.": 1, "migration relative to mock": 1.06, "migration and cell number class": "no change in migration or cell number", "mean nuclei count": 5782, "Call": "inactive"}
{"gene": "RNASEH2C", "siRNA no.": 2, "migration relative to mock": 0.88, "migration and cell number class": "no change in migration or cell number", "mean nuclei count": 5174, "Call": "inactive"}
{"gene": "RNASEH2C", "siRNA no.": 3, "migration relative to mock": 0.55, "migration and cell number class": "migration reduced", "mean nuclei count": 4168, "Call": "active"}
{"gene": "RNASEH2C", "siRNA no.": 4, "migration relative to mock": 0.92, "migration and cell number class": "no change in migration or cell number", "mean nuclei count": 5910, "Call": "inactive"}
{"gene": "CUEDC2", "siRNA no.": 1, "migration relative to mock": 1.08, "migration and cell number class": "no change in migration or cell number", "mean nuclei count": 6455, "Call": "inactive"}
{"gene": "CUEDC2", "siRNA no.": 2, "migration relative to mock": 0.54, "migration and cell number class": "too few cells; migration not scored", "mean nuclei count": 3264, "Call": "inactive"}
{"gene": "CUEDC2", "siRNA no.": 3, "migration relative to mock": 0.98, "migration and cell number class": "no change in migration or cell number", "mean nuclei count": 6245, "Call": "inactive"}
{"gene": "CUEDC2", "siRNA no.": 4, "migration relative to mock": 1.19, "migration and cell number class": "no change in migration or cell number", "mean nuclei count": 6087, "Call": "inactive"}
{"gene": "CHD4", "siRNA no.": 1, "migration relative to mock": 0.92, "migration and cell number class": "no change in migration or cell number", "mean nuclei count": 5688, "Call": "inactive"}
{"gene": "CHD4", "siRNA no.": 2, "migration relative to mock": 0.74, "migration and cell number class": "no change in migration or cell number", "mean nuclei count": 5814, "Call": "inactive"}
{"gene": "CHD4", "siRNA no.": 3, "migration relative to mock": 0.94, "migration and cell number class": "no change in migration or cell number", "mean nuclei count": 5884, "Call": "inactive"}
{"gene": "CHD4", "siRNA no.": 4, "migration relative to mock": 1.04, "migration and cell number class": "no change in migration or cell number", "mean nuclei count": 5538, "Call": "inactive"}
{"gene": "TP53I11", "siRNA no.": 1, "migration relative to mock": 1.02, "migration and cell number class": "no change in migration or cell number", "mean nuclei count": 5248, "Call": "inactive"}
{"gene": "TP53I11", "siRNA no.": 2, "migration relative to mock": 0.64, "migration and cell number class": "no change in migration or cell number", "mean nuclei count": 5450, "Call": "inactive"}
{"gene": "TP53I11", "siRNA no.": 3, "migration relative to mock": 0.56, "migration and cell number class": "migration reduced", "mean nuclei count": 4926, "Call": "active"}
{"gene": "TP53I11", "siRNA no.": 4, "migration relative to mock": 1.45, "migration and cell number class": "migration increased", "mean nuclei count": 5330, "Call": "active"}

2 entries from above, arranged by “migration relative to mock”, low to high.
{"gene": "RNASEH2C", "siRNA no.": 3, "migration relative to mock": 0.55, "migration and cell number class": "migration reduced", "mean nuclei count": 4168, "Call": "active"}
{"gene": "RNASEH2C", "siRNA no.": 4, "migration relative to mock": 0.92, "migration and cell number class": "no change in migration or cell number", "mean nuclei count": 5910, "Call": "inactive"}
